From publication PMC5983628
Construct, isoform or probe ends are uncertain for at least one entry.

Chains of the proteins cited; added tags and fusions are not shown. Lines headed by an entry give the natural chain unless they say otherwise; changes in a name come on top.
UniProt P06612: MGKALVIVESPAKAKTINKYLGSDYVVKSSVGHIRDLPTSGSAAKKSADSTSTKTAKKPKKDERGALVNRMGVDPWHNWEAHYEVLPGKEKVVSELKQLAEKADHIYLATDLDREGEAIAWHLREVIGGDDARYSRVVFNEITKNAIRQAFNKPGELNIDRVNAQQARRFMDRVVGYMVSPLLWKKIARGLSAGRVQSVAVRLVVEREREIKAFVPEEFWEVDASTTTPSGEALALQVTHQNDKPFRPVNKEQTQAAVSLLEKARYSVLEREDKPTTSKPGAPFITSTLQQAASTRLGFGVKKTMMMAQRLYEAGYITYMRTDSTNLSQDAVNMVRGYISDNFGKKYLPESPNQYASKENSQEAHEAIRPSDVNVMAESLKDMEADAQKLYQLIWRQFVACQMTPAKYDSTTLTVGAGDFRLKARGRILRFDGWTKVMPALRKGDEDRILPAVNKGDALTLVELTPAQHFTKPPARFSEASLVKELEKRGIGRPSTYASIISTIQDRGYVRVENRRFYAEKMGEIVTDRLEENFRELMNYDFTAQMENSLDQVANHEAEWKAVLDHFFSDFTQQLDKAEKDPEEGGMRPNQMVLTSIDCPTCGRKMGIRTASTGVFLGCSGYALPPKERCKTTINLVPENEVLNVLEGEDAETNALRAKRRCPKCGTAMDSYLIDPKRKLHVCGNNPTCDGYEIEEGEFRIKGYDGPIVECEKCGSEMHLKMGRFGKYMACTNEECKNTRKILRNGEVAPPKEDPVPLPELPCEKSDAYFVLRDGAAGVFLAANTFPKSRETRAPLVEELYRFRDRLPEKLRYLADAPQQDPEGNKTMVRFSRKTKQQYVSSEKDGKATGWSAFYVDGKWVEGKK

Experiments:
[1] = target: E. coli DNA topoisomerase I, acetylated by acetyl phosphate (Escherichia coli) (UniProt P06612); experiment: EMSA; conditions: 5 mM Mg2+, 10 mM EDTA, acetyl phosphate-treated enzyme, average over protein:DNA ratios, 3 replicates; EMSA: 150 mM Tris-HCl pH 8.0, 1 mg/mL BSA, 10% glycerol, 5 mM MgCl2, 10 mM EDTA, 37 C, 5 min; 6% native PAGE in 0.5x TBE; recombinant protein; label: 5'-32P; folded or branched DNA; scale: fold decrease in bound fraction vs nonacetylated
[2] = target: E. coli DNA topoisomerase I, nonacetylated (Escherichia coli) (UniProt P06612); experiment: EMSA; conditions: 5 mM Mg2+, 10 mM EDTA; EMSA: 150 mM Tris-HCl pH 8.0, 1 mg/mL BSA, 10% glycerol, 5 mM MgCl2, 10 mM EDTA, 37 C, 5 min; 6% native PAGE in 0.5x TBE; recombinant protein; label: 5'-32P; folded or branched DNA

In the case of “GCCCTGAAAGATTATGCAATGCGCTTTGGGCAAACCAAGAGAGCATAATCTTTCAGGGC [59-base oligonucleotide substrate]”, the binding signal [1] is reported as 2 and the binding result [2] is reported as “binds”.
